The target of assay [1] is HHV5-UL97 (human cytomegalovirus (human herpesvirus 5, HHV5)) (UniProt P16788). Briefly: co-IP; co-immunoprecipitation experiments with pUL97 (Supplementary Fig. 3c–f); bait not given.
In assay [2] the target is Cyclin A (human (endogenous in HEK-293T)) (UniProt P20248). Briefly: co-IP.

The chains behind the UniProt entries cited, without tags or fusion partners.
UniProt P16788: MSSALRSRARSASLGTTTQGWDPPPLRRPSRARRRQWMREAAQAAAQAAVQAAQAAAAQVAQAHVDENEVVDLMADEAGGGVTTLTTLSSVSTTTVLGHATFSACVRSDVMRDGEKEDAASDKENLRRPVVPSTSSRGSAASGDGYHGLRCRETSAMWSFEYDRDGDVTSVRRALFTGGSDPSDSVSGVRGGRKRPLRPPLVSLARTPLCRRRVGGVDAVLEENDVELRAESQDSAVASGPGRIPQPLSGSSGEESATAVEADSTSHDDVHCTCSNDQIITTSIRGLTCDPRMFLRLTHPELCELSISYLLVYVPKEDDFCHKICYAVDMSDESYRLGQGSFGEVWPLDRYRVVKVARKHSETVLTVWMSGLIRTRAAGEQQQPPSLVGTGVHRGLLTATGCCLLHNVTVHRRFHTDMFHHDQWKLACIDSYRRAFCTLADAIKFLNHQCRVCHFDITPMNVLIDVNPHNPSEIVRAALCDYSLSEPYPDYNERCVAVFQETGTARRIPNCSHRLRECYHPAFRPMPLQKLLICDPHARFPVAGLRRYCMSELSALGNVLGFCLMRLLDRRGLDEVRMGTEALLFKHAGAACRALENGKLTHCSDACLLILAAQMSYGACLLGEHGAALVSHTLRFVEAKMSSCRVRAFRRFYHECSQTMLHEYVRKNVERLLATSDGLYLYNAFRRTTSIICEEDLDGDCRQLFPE
UniProt P20248: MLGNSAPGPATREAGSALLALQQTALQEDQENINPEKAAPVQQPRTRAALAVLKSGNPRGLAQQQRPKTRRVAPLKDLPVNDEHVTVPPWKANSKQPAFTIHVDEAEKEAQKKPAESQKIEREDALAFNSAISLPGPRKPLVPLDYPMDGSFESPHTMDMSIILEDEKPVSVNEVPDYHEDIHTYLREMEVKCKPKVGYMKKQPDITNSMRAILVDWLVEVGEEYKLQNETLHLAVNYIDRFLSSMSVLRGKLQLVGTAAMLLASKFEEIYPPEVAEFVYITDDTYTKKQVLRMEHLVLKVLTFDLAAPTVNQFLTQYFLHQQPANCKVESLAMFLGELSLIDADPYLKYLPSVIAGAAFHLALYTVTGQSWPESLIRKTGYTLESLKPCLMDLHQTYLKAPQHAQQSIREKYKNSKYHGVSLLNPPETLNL
UniProt O43791: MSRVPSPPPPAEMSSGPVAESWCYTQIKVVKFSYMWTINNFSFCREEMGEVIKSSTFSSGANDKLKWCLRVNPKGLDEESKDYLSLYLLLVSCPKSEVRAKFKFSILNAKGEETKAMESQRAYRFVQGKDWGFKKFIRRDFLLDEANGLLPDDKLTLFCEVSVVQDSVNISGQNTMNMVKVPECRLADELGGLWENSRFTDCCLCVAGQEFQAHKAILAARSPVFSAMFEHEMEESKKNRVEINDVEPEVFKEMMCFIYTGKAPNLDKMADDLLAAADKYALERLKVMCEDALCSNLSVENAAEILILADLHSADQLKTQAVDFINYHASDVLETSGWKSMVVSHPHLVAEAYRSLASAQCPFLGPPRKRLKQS
UniProt P35226: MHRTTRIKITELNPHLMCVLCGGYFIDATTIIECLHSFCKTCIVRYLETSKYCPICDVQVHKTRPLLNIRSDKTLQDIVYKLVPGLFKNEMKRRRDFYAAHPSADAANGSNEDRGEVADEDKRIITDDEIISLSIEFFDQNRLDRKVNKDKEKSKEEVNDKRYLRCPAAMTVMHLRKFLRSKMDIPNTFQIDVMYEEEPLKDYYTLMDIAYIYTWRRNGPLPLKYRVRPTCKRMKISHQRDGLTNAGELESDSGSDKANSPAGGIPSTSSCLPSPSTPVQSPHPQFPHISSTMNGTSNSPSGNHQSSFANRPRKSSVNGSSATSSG
UniProt Q13263: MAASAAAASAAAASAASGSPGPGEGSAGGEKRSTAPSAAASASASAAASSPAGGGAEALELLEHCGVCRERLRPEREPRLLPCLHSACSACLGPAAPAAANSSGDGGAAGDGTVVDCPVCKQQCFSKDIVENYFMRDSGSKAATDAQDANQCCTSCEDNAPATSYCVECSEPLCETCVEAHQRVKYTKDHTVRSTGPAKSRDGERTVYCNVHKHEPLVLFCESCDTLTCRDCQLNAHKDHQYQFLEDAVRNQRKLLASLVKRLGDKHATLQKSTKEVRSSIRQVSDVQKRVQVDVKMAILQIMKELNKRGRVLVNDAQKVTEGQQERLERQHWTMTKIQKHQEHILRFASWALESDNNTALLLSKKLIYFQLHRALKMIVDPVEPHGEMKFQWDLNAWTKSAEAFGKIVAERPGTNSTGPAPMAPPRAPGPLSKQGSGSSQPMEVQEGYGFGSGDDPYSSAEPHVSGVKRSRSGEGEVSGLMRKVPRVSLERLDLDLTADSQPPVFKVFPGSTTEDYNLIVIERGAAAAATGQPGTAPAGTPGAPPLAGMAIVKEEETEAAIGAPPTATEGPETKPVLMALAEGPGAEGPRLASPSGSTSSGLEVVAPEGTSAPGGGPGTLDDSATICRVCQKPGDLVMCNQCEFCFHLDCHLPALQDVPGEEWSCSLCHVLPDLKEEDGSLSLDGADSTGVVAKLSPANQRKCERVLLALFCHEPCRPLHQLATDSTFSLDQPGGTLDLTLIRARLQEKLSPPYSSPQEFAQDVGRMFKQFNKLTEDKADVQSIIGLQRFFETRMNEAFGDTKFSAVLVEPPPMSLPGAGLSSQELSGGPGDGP

Binding data for four substances are collected here from paper PMC7518283.

These are yes or no findings as the source states them, for the method shown. Binding seen in cells or lysates may run through a third protein. Some entries that bind do so weakly or less than the wild type.

Take SPOP (from UniProt O43791 1-374): the binding entry in assay [1] is listed as “binds”.

On to “HHV5-UL97 (from UniProt P16788 1-707) (enzyme)”, for which the binding result in assay [2] is reported as “binds”. As for BMI1 (from UniProt P35226 1-326), the binding entry in assay [1] is recorded as “binds”.

TRIM28 (from UniProt Q13263 1-835): the binding result in assay [1] is “binds”.
